Four molecules from doi:10.1101/2025.11.17.688470 can be followed below.

By UniProt entry, the sequences of proteins in these tests, tags left out.
UniProt Q07955: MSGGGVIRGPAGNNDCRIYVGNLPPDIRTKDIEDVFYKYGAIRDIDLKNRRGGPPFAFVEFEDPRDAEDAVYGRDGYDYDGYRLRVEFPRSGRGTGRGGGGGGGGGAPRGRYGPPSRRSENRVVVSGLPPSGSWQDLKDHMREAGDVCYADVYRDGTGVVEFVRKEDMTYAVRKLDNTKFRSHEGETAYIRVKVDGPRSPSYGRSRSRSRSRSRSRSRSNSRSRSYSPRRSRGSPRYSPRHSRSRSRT

No constants are given. Whether binding was seen depends on the method and setting. In cells and extracts the contact can be indirect. Here binding means that the protein was enriched with, or labelled near, the bait; the list need not be complete.

For assay [1], the target named is GFP-SRSF1 wild type (Serine/arginine-rich splicing factor 1) (UniProt Q07955). The assay is described as follows: affinity purification with mass spectrometry.
For assay [2], the target named is GFP-SRSF1 wild type (Serine/arginine-rich splicing factor 1), Q07955. The assay is described as follows: affinity purification with mass spectrometry. The conditions noted are these: remark: other sources report otherwise.

B1: SRSF7 (protein, UniProt Q16629 1-238)
chain: MSRYGRYGGETKVYVGNLGTGAGKGELERAFSYYGPLRTVWIARNPPGFAFVEFEDPRDAEDAVRGLDGKVICGSRVRVELSTGMPRRSRFDRPPARRPFDPNDRCYECGEKGHYAYDCHRYSRRRRSRSRSRSHSRSRGRRYSRSRSRSRGRRSRSASPRRSRSISLRRSRSASLRRSRSGSIKGSRYFQSPSRSRSRSRSISRPRSSRSKSRSPSPKRSRSPSGSPRRSASPERMD
As for B1, the binding entry in assay [1] is “binds”.

B2: hnRNP F, P52597 1-415 (protein)
chain: MMLGPEGGEGFVVKLRGLPWSCSVEDVQNFLSDCTIHDGAAGVHFIYTREGRQSGEAFVELGSEDDVKMALKKDRESMGHRYIEVFKSHRTEMDWVLKHSGPNSADSANDGFVRLRGLPFGCTKEEIVQFFSGLEIVPNGITLPVDPEGKITGEAFVQFASQELAEKALGKHKERIGHRYIEVFKSSQEEVRSYSDPPLKFMSVQRPGPYDRPGTARRYIGIVKQAGLERMRPGAYSTGYGGYEEYSGLSDGYGFTTDLFGRDLSYCLSGMYDHRYGDSEFTVQSTTGHCVHMRGLPYKATENDIYNFFSPLNPVRVHIEIGPDGRVTGEADVEFATHEEAVAAMSKDRANMQHRYIELFLNSTTGASNGAYSSQVMQGMGVSAAQATYSGLESQSVSGCYGAGYSGQNSMGGYD
For B2, the binding entry in assay [2] is on record as “binds”.

B3: SRSF3 (protein, UniProt P84103 1-164)
chain: MHRDSCPLDCKVYVGNLGNNGNKTELERAFGYYGPLRSVWVARNPPGFAFVEFEDPRDAADAVRELDGRTLCGCRVRVELSNGEKRSRNRGPPPSWGRRPRDDYRRRSPPPRRRSPRRRSFSRSRSRSLSRDRRRERSLSRERNHKPSRSFSRSRSRSRSNERK
Turning to B3, the binding entry in assay [1] is “binds”.

B4: hnRNP A0 (protein, UniProt Q13151 1-305)
chain: MENSQLCKLFIGGLNVQTSESGLRGHFEAFGTLTDCVVVVNPQTKRSRCFGFVTYSNVEEADAAMAASPHAVDGNTVELKRAVSREDSARPGAHAKVKKLFVGGLKGDVAEGDLIEHFSQFGTVEKAEIIADKQSGKKRGFGFVYFQNHDAADKAAVVKFHPIQGHRVEVKKAVPKEDIYSGGGGGGSRSSRGGRGGRGRGGGRDQNGLSKGGGGGYNSYGGYGGGGGGGYNAYGGGGGGSSYGGSDYGNGFGGFGSYSQHQSSYGPMKSGGGGGGGGSSWGGRSNSGPYRGGYGGGGGYGGSSF
For the molecule B4, the binding entry in assay [1] is on record as “binds”.
